# Reference: US9675681B2, “Shortened purification process for the production of capsular Streptococcus pneumoniae polysaccharides” (priority 2007, dated 2017)
# For at least one compound, name, drawing or mass did not settle the structure.
# How the values were obtained:
# [1] = test system: ΔlytA cells (R6X ΔlytA, D39 ΔlytA); assay: Microtiter plate lysis assay, ΔlytA cells; type: cell-based, S. pneumoniae; settings: freshly prepared or frozen and thawed cells; about 15 minutes at 36° C.
# Source text: (§1) Mitrotiter Assay: A rapid microtiter plate assay was devised for examining lytA-dependent lysis of pneumococci by different detergents or surfactants. Two pairs of isogenic strains of S. pneumoniae were used in the assay; one member of each pair was wild type for the lytA gene while the other strain carried a deletion in the lytA gene Thus, if lysis were dependent on an active lytA function, that detergent would not lyse the mutant strains. The four strains, R6X, R6X ΔlytA, D39 and D39 ΔlytA, were cultivated in HySoy medium to approximately mid-log phase (OD600˜0.2-0.8; OD600=Optical Density at 600 nm). Cells were then centrifuged and cell pellets were resuspended in HySoy medium. To each well of the microtiter plate, 100 μL, of cell suspension was added, along with 10 μL, of detergent stocks or water as a control. After about 15 minutes at 36° C., the OD600 of the samples was measured with a Spectramax® spectrophotometer (Molecular Devices, Sunnyvale, Calif.).
# [2] = test system: Wild-type cells (R6X, D39); assay: Microtiter plate lysis assay, wild-type cells; type: cell-based, S. pneumoniae; settings: freshly prepared or frozen and thawed cells; about 15 minutes at 36° C.
# Source text: as §1
smiles,measurement,setting,value
C[C@H](CCC(=O)O)[C@H]1CC[C@H]2[C@@H]3CC[C@@H]4C[C@H](O)CC[C@]4(C)[C@H]3C[C@H](O)[C@]12C [Deoxycholic acid],Lysis of ΔlytA cells,[1],did not lyse
same,Lysis of wild-type cells (OD600 versus medium blank),[2],lysis had occurred
